The source of these data is PubChem BioAssay AID463206 (Broad Institute, 2010).

The list shows a part of the results. Results with a measured potency or affinity are listed apart. The source made no clear call on entries shown without one.

The assay in a line: inhibitors of cytokine-induced caspase-3/7 activity, dose response, orthogonal assay for beta-cell apoptosis protection project, INS-1E rat cells, luminescence (AID 463206). As to conditions: INS-1E cytokine-induced caspase-3/7, Caspase-Glo luminescence, 48 h; at 26 µM (top of the series).
On to `O=C(CCCCCCCCCCC(=O)NCc1cccnc1)NCc1cccnc1`, for which the activity change, negative = inhibition turned out to be 51.8%.
Under `O=C(NCc1cccnc1)c1ccc(NC(=O)c2ccc(Br)cc2)cc1` stands 48.3%.
In the case of `COc1ccccc1-[n+]1c(C)cc(/C=C2\Sc3ccccc3N2C)cc1C`, the activity change, negative = inhibition was determined as 45.3%.
Under `O=C(CCC1CCCC1)Nc1ccc(C(=O)NCc2cccnc2)cc1` stands 46.8%; under `O=C(COc1ccc([N+](=O)[O-])cc1)Nc1ccc(C(=O)NCc2cccnc2)cc1`, 46.9%.
Under `CC(C)(C)c1ccc(C(=O)Nc2ccc(C(=O)NCc3cccnc3)cc2)cc1` stands 49.6%; under `O=C(NCc1cccnc1)c1ccc(NC(=O)c2ccc([N+](=O)[O-])cc2)cc1`, 49.1%; under `O=C(NCc1cccnc1)c1ccc(NC(=O)c2cccc([N+](=O)[O-])c2)cc1`, 44.1%.
Under `COc1ccc(Cc2nc(-c3ccc(NC(=O)c4cccnc4)cc3)no2)cc1` stands 44.1%; under `CCN1/C(=C/C(C)=C/c2sc3ccccc3[n+]2CC)Sc2ccccc21`, 56.6%.
For the molecule `O=C(NCCOc1cccnc1)c1ccc(OC2CCN(Cc3ccccn3)CC2)cc1`, the activity change, negative = inhibition stood at 60.2%.
Under `O=C(COc1ccc(Cl)cc1)Nc1ccc(C(=O)NCc2cccnc2)cc1` stands 55%.
